Several values for one entry are separate records, joined by “and”; a condition that tells them apart may be missing. Equal values may be shown once. The shares of active, inactive and inconclusive entries below differ from those in the screen. For some of these results: Potencies beside an inconclusive call are fits to weak or partial responses and may not hold up. Activity calls are given as the source filed them. Calls come from the whole dose curve; as a rule, active = well fitted curve in the direction sought with a large enough effect; inconclusive = small, poorly fitted or top-dose-only effect, or another doubt; inactive = no such curve, though single readings can be large; an effect the other way counts as inactive or inconclusive.
Columns and labels:
[1] = Cell Proliferation Assay against the TMD8 Cell Line (Caspase readout at 16 hrs) (AID 651712); conditions: TMD8 lymphoma cells, caspase activation luminescence; caspase activation: at 46.1 µM (top of the series); note: potency is the fitted concentration of half-maximal effect;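 for caspase activation: 0% = DMSO and 100% = 9.2 µM bortezomib caspase activation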
How it was run: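 16 h, 37 °C, TMD8 (500 cells/well), RPMI/5% FBS no phenol red; Caspase-Glo 3/7, 15 min RT, luminescence; %act: DMSO 0, bortezomib 9.2 uM final 100.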

[2] = Cell Proliferation Assay against the TMD8 Cell Line (Caspase readout at 8 hrs) (AID 651713); conditions: TMD8 lymphoma cells, caspase activation luminescence; caspase activation: at 46.1 µM (top of the series); note: potency is the fitted concentration of half-maximal effect;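 for caspase activation: 0% = DMSO and 100% = 9.2 µM bortezomib caspase signal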
How it was run: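 Apoptosis read-out: Caspase-Glo luminescence after 8 h compound exposure of TMD8 lymphoma cells at 37C, 5% CO2. Signals were normalized as percent activity between DMSO and bortezomib (9.2 uM final) controls.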

[3] = Identifying Small Molecule Inhibitors of Pancreatic Cancer Stem Cells (A2780, Spheroid) (AID 1259357); conditions: Potency: A2780 spheroid viability; viability (percent of control): at 46.1 µM (top of the series);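 note: compound exposure lasted 48 h before the ATP luminescence read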; note: potency is the fitted concentration of half-maximal effect
How it was run: (§1)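 Luminescent ATP readout (CellTiter-Glo) quantifies surviving cells after a 48 h drug incubation. Normalization uses DMSO wells as no inhibition and media-only wells as full inhibition; bortezomib served as positive control.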

[4] = Identifying Small Molecule Inhibitors of Pancreatic Cancer Stem Cells (SN12C, Spheroid) (AID 1259360); conditions: Potency: SN12C spheroid viability; note: potency is the fitted concentration of half-maximal effect
How it was run: as §1

[5] = Identifying Small Molecule Inhibitors of Pancreatic Cancer Stem Cells (A278, Adherent) (AID 1259361); note: nearly all actives have a fitted effect of over 35% in size;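 for viability (% of control): 100% = DMSO-treated cells and 0% = cell-free media-only wells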
How it was run: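 After a 4 h attachment period, compounds were pinned into wells and cultures held 48 h under standard incubator conditions. Viability was then measured as CellTiter-Glo luminescence following 10 min at room temperature.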

[6] = P-glycoprotein substrates identified in KB-8-5-11 adenocarcinoma cell line, qHTS therapeutic library screen (AID 1346987); note: nearly all actives have a fitted effect of over 65% in size; note: potency is the fitted concentration of half-maximal effect
How it was run: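 Compounds are pinned in dose-response onto KB-8-5-11 cells (500 cells/well, colchicine-free medium) and left 72 h at 37 degree C. CellTiter-Glo luminescence then yields AC50 values.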

[7] = qHTS of pediatric cancer cell lines to identify multiple opportunities for drug repurposing: Primary screen for BT-12 cells (AID 1347101); note: potency is the fitted concentration of half-maximal effect; nearly all actives have a fitted effect of over 25% in size
How it was run: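 Cells (500-1,000/well) rested 5 h, then received compounds for 48 h; metabolically active cells were measured by CellTiter-Glo luminescence. Final concentrations spanned up to 46 µM (MIPE, 11-point) or 0.59 nM-46 µM (NPC, 8-point) in primary screens, 11-point in follow-ups.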

[8] = qHTS of pediatric cancer cell lines to identify multiple opportunities for drug repurposing: Primary screen for Rh18 cells (AID 1347102); note: potency is the fitted concentration of half-maximal effect; nearly all actives have a fitted effect of over 65% in size
How it was run: (§2)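 Cells (500-1,000/well) in growth media were settled 5 h at 37 degrees C, then given compounds for 48 h. Viability was read as CellTiter-Glo luminescence. Primary runs used MIPE at 11 points (0.78 nM-46 µM) and NPC at 8 points (0.59 nM-46 µM); follow-ups used 11 points.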

[9] = qHTS of pediatric cancer cell lines to identify multiple opportunities for drug repurposing: Primary screen for Rh30 cells (AID 1347107); note: nearly all actives have a fitted effect of over 75% in size; note: potency is the fitted concentration of half-maximal effect
How it was run: as §2

[10] = qHTS of pediatric cancer cell lines to identify multiple opportunities for drug repurposing: Primary screen for Rh41 cells (AID 1347108); note: potency is the fitted concentration of half-maximal effect; nearly all actives have a fitted effect of over 70% in size
How it was run: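 Phenotypic viability qHTS, 48 h compound exposure, CellTiter-Glo luminescence read-out; multi-concentration dosing so that potency and efficacy derive directly from the primary screen's curves.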

[11] = Quantitative High-Throughput drug screen in 47 multiple myeloma cell lines against the NCATS MIPE library collection: JIM1_ECACC cell viability assay (AID 1918964; note: potency is the fitted concentration of half-maximal effect)
How it was run: (§3)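 Relative luminescence from CellTiter-Glo served as the viability signal, referenced to DMSO-treated (100%) and cell-free medium (0%) controls. Treatment lasted 48 hours at 37C with 500 cells per well.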

[12] = Quantitative High-Throughput drug screen in 47 multiple myeloma cell lines against the NCATS MIPE library collection: KMS20_JCRB cell viability assay (AID 1918973); conditions: CellTiter-Glo ATP, 48 h; viability (% of DMSO): at 45.8 µM (top of the series); note: nearly all actives have a fitted effect of over 45% in size; note: potency is the fitted concentration of half-maximal effect;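 for viability (% of DMSO): 100% = DMSO only wells and 0% = media only wells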
How it was run: as §3

[13] = Quantitative High-Throughput drug screen in 47 multiple myeloma cell lines against the NCATS MIPE library collection: KMS21BM_JCRB cell viability assay (AID 1918974); conditions: ATP luminescence, 48 h; viability: at 45.8 µM (top of the series); note: potency is the fitted concentration of half-maximal effect
How it was run: as §3

[14] = Quantitative High-Throughput drug screen in 47 multiple myeloma cell lines against the NCATS MIPE library collection: MOLP8_DSMZ cell viability assay (AID 1918977); conditions: MOLP8 myeloma viability, CellTiter-Glo ATP luminescence, 48 h; viability (% of control): at 45.8 µM (top of the series); note: nearly all actives have a fitted effect of over 45% in size; note: potency is the fitted concentration of half-maximal effect;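 for viability (% of control): 100% = DMSO-only wells and 0% = media-only wells without cells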
How it was run: (§4)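 qHTS format: cells plated (500/well), pin-dosed with MIPE 4.0 compounds, kept 48 h at 37 °C. Readout was CellTiter-Glo luminescence, median RLU.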

[15] = Quantitative High-Throughput drug screen in 47 multiple myeloma cell lines against the NCATS MIPE library collection: LP1_DSMZ cell viability assay (AID 1918982); note: potency is the fitted concentration of half-maximal effect; nearly all actives have a fitted effect of over 35% in size
How it was run: as §4

[16] = Quantitative High-Throughput drug screen in 47 multiple myeloma cell lines against the NCATS MIPE library collection: L363_DSMZ cell viability assay (AID 1918984); conditions: L363 myeloma viability, CellTiter-Glo ATP luminescence, 48 h; viability (% of control): at 45.8 µM (top of the series); note: potency is the fitted concentration of half-maximal effect; nearly all actives have a fitted effect of over 40% in size
How it was run: as §4

HEK293 = assay: Cytotoxic Profiling of Annotated Libraries Using Quantitative High-Throughput Screening (AID 1296008); conditions: Five cell lines viability, CellTiter-Glo ATP luminescence, 48-72 h; max response: stronger effect = lower value; note: potency is the fitted concentration of half-maximal effect; nearly all actives have a fitted effect of over 60% in size
How it was run: (§5)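 Compounds were pin-transferred onto cells and incubated 48 or 72 hr at 37 degree Celsius, 95% humidity. CellTiter-Glo was added, plates sat 10 min at room temperature, then ATP-coupled luminescence was imaged as the viability read-out.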

[17] = Identifying Small Molecule Inhibitors of Pancreatic Cancer Stem Cells (Panc1, Spheroid) (AID 1259359); conditions: Panc1 spheroid cancer stem cell viability; viability, % of control: at 46.1 µM (top of the series) unless noted;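 note: potency is the fitted concentration of half-maximal effect; compound exposure lasted 48 h before reading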
How it was run: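 Adherent (2D) versus sphere (3D) formats; spheres generated 14 d in SCM beforehand. Compound transferred by pin tool after 4 h, 48 h incubation, CellTiter-Glo endpoint.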

[18] = Identifying Small Molecule Inhibitors of Pancreatic Cancer Stem Cells (Panc1, Adherent) (AID 1259362); conditions: Potency: viability unless noted; viability, % of control: at 46.1 µM (top of the series) unless noted; note: potency is the fitted concentration of half-maximal effect
How it was run: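 Cytotoxicity read by CellTiter-Glo luminescence after 48 h compound exposure at 37C; percent activity scaled between DMSO-treated cells and cell-free wells. Spheroid formats used cells pre-formed 14 days in stem cell media on hydrogel.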

CRL-7250 = normal cell line; assay: Cytotoxic Profiling of Annotated Libraries Using Quantitative High-Throughput Screening (AID 1296008); conditions: Five cell lines viability, CellTiter-Glo ATP luminescence, 48-72 h; max response: stronger effect = lower value; note: potency is the fitted concentration of half-maximal effect; nearly all actives have a fitted effect of over 60% in size
How it was run: as §5

Cc1cccc(C=NNc2cc(N3CCOCC3)nc(OCCc3ccccn3)n2)c1
active: Potency [11] 0.935 µM | Potency [12] 6.62 µM | Potency [15] 11.8 µM | Potency [16] 0.235 µM | Potency (HEK293) 5.9 µM
inconclusive: Potency [1] 26.4 µM [activator, single point] | Potency [2] 33.2 µM [activator, single point] | Potency [3] 0.0132 µM [cytotoxic, full curve, poor fit] | Potency [4] 6.62 µM [cytotoxic, partial curve] | IC50 (viability decrease) [5] 18.7 µM [cytotoxic, partial curve] | Potency [6] 20.9 µM [inhibitor, partial curve] | Potency [7] 21.7 µM [cytotoxic, partial curve] | Potency [8] 20.9 µM [cytotoxic, partial curve] | Potency [9] 11.8 µM [cytotoxic, partial curve] | Potency [10] 18.7 µM [cytotoxic, partial curve] | Potency [13] 33.2 µM [rising, partial curve] | Potency [14] 26.4 µM [cytotoxic, partial curve, poor fit]

C=CCc1cccc(/C=N/NC(=O)CN2CCN(Cc3ccccc3)CC2)c1O
active: Potency [17] 26.4 µM | Potency [18] 4.18 µM
inactive: Potency [2]
inconclusive: Potency [1] 4.18 µM [activator, full curve, poor fit] | Potency [3] 33.2 µM [cytotoxic, single point] | Potency [4] 23.5 µM [cytotoxic, partial curve] | IC50 (viability decrease) [5] 7.43 µM [cytotoxic, partial curve]

COC(=O)C1=C(C)NC(C)=C(C(=O)OCCCN2CCC(c3ccccc3)(c3ccccc3)CC2)[C@H]1c1cccc([N+](=O)[O-])c1
active: IC50 (viability decrease) [5] 26.4 µM
inconclusive: Potency [1] 29.6 µM [activator, single point] | Potency [2] 33.2 µM [activator, single point] | Potency [17] 20.9 µM [cytotoxic, partial curve, poor fit] | Potency [4] 33.2 µM [cytotoxic, single point] | Potency [18] 29.6 µM [cytotoxic, single point]
inactive: Potency [3]

CC(C)OC(=O)C1=CN(C(=O)c2ccc(F)c(F)c2)CC(C)(C)c2c1[nH]c1ccccc21
inactive: Potency [1] | Potency [4] | IC50 (viability decrease) [5] | Potency [6] | Potency [9] | Potency [12] | Potency [14]
inconclusive: Potency [3] 8.33 µM [cytotoxic, partial curve, poor fit] | Potency [17] 0.105 µM [cytotoxic, full curve, poor fit] | Potency [11] 0.001 µM | Potency [13] 1.32 µM [rising, full curve, poor fit] | Potency [16] 0.209 µM [rising, partial curve, poor fit]

O=C1Nc2ccc(Cl)cc2[C@@](C#CC2CC2)(C(F)(F)F)O1
inconclusive: Potency [1] 42.9 µM [activator, single point] | Potency [3] 8.55 µM [cytotoxic, full curve, poor fit] | Potency [17] 42.9 µM [cytotoxic, partial curve, poor fit] | Potency [4] 48.1 µM [cytotoxic, partial curve] | Potency [6] 29.1 µM [inhibitor, single point] | Potency [7] 38.9 µM [cytotoxic, single point] | Potency (HEK293) 26.6 µM [inhibitor, single point] and 29.1 µM [inhibitor, single point]
active: Potency [2] 17.1 µM | Potency [18] 48.1 µM
inactive: Potency [9]

Cc1[nH]c2ccccc2c1CCNCc1ccc(C=CC(=O)NO)cc1
active: Potency [1] 0.0332 µM | Potency [17] 0.59 µM | Potency [8] 0.0935 µM | Potency [10] 0.235 µM | Potency (CRL-7250) 1.05 µM
inconclusive: caspase activation [2] 62.4% [activator] | Potency [3] 0.059 µM [cytotoxic, full curve, poor fit] | Potency [4] 0.935 µM [cytotoxic, full curve] | Potency [9] 0.469 µM [cytotoxic, full curve] | Potency [11] 0.105 µM [cytotoxic, full curve, poor fit] | Potency [12] 0.0118 µM [cytotoxic, full curve, poor fit] | Potency [13] 0.0083 µM [cytotoxic, full curve, poor fit] | Potency [15] 0.0662 µM [cytotoxic, full curve] | Potency [16] 0.0526 µM [cytotoxic, full curve, poor fit]

Source: PubChem BioAssay (NCATS)
